From US20080213860
Residue numbers refer to the chain shown, from its start. The exact form of at least one protein or probe is not confirmed. For some of these results: The comparison behind a weaker result is the experiment's own reference, which may not be listed here. Protein sequences can lack the tags named with them.

Assays:
Assay in all cases: enzyme reaction in vitro
[1] = test system: T1, BsmI R56D (Bacillus stearothermophilus NUB36); conditions: ds-DNA cleavage; protein in an extract; only the site is given
T1 sequence: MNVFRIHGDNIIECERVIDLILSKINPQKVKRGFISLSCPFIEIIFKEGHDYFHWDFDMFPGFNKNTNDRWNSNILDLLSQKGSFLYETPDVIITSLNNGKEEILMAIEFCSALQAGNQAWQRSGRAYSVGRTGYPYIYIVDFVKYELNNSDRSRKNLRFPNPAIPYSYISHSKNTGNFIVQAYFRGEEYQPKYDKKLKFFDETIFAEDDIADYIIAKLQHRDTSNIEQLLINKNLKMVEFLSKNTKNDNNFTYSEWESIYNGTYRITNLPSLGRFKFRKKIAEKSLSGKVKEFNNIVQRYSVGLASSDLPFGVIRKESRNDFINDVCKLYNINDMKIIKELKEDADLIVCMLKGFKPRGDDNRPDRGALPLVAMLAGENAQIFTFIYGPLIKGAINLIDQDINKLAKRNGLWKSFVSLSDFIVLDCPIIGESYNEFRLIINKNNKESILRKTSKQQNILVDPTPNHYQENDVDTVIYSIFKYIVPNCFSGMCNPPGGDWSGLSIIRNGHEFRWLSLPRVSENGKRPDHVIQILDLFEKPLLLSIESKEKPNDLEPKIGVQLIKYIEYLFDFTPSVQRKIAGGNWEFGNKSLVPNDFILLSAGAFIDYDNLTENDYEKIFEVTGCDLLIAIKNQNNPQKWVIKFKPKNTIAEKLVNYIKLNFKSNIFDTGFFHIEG

[2] = test system: T2, BsmI R364D (Bacillus stearothermophilus NUB36); conditions: low nicking activity; protein in an extract; only the site is given
T2 sequence: T1 sequence with D56R, R364D

[3] = test system: T3, BsmI R186D (Bacillus stearothermophilus NUB36); conditions: low nicking activity, low ds-DNA cleavage; protein in an extract; only the site is given
T3 sequence: T1 sequence with D56R, R186D

[4] = test system: T4, BsmI R279D (Bacillus stearothermophilus NUB36); conditions: ds-DNA cleavage; protein in an extract; only the site is given
T4 sequence: T1 sequence with D56R, R279D

Q: “GCATTC [pBR322 supercoiled plasmid (one BsmI site)]” was tested. Which “activity on this sequence” value [1] did it give?
A: active

Q: What about the “activity on this sequence” value [2] of the same sequence?
A: less active

Q: What about the “activity on this sequence” value [3] of the same sequence?
A: less active

Q: What about the “activity on this sequence” value [4] of the same sequence?
A: active
